## Library screening results

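Whole-cell assay for inhibitors of Mycobacterium tuberculosis growth, labelled Cornell in the record; the read-out is not stated. The concentration is filed as 10 mM, unlikely as a test dose, so the dose is not known. Higher means stronger inhibition (inferred from two other growth screens of the library). Of about 53,000 compounds tested this way, about 900 (1.7%) reached 50% or more in at least one test.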

Results are given as percent effect. The record does not define 0% and 100%; most values in the screen are far below 50% and negative numbers occur (in some assays of this library far below -100). This is an unselected part of the compounds tested.

| Compound | effect |
|---|---|
| `CC(C)c1ccc(S(=O)(=O)NC2(CC(N)=O)CCC2)cc1` | 0.1861% |
| `Cc1cccc(Nc2cc(C)nc(C3CCN(C(C)C)C3)n2)n1.O=CO` (stereo not drawn) | -43.12% |
| `O=C(Nc1ccccc1)N1CCn2nnc(COc3cccnc3)c2C1.O=C(O)C(F)(F)F` | 12.96% |
| `O=C(O)CCc1cc2n(n1)CCN(Cc1ccc3[nH]ccc3c1)C2` | 15.24% |
| `O=C(O)C(F)(F)F.[H][C@@]12CN(C)CCO[C@]1([H])CN(C(=O)COc1cccc(Cl)c1)C2` | 34.02% |
| `CC(C)Nc1ccc(-c2ccnc3c2ccn3C)nn1` | 10.38% |
| `CC(NC(=O)NCCNc1ccccn1)c1cccs1` (stereo not drawn) | -14.12% |
| `O=C(COCc1ccccc1)N1CCCC1c1noc(C2CC2)n1` (stereo not drawn) | -20.83% |
| `Cc1ccc2c(c1)C(N1CCOCC1)CC21CCNCC1` (stereo not drawn) | -8.104% |
| `CC(C)c1cc(N2CCC3(CC2)CN(C)CCN3C)ncn1` | 26.94% |
| `CCN1CC2(CC1=O)CN(C(=O)c1ccco1)CCN(C(=O)N(C)C)C2` (stereo not drawn) | 17.63% |
| `Cc1ccc(N2N=C(C(=O)N(C)Cc3ccco3)NCC2=O)cc1` | -5.079% |
| `CN1Cc2ccccc2CC2(CCN(c3ncc(F)cn3)CC2)C1=O` | 31.75% |
| `CCOC(=O)C1CC2(CCCC2)N2CCC(=O)N12` (stereo not drawn) | 31.41% |
| `O=C(C1CCCO1)N1CCCn2c(nnc2Cn2ccnc2)C1.O=C(O)C(F)(F)F` (stereo not drawn) | 24.96% |
| `CCCN1CCN(C(=O)CCn2cccc2)CC1` | 22.02% |
| `Cc1nsc(NCc2ccc(CS(=O)(=O)NC(C)C)cc2)n1` | -9.399% |
| `CC1CN(S(=O)(=O)c2ccc(F)cc2F)c2cccnc2O1` (stereo not drawn) | 15.45% |
| `Cc1ccc(CC(=O)NCC(Cc2ccc(F)cc2)C(N)=O)cn1` (stereo not drawn) | 38.48% |
| `[H][C@]12CCN(C(=O)Cc3cccc(OC)c3)[C@@]1([H])CCC(=O)N2` | 18.72% |
| `Cc1ccc(C(CNC(=O)c2cc(=O)c3ccccc3[nH]2)N(C)C)cc1` (stereo not drawn) | 0.095% |
| `[H][C@@]12CN(Cc3cccc(F)c3)C[C@]1([H])N(CCCN1CCOCC1)C(=O)O2` | -6.322% |
| `O=C(O)C(F)(F)F.[H][C@@]12C[C@@H](c3nc(C)no3)CN(S(=O)(=O)c3cccnc3)[C@]1([H])CCO2` | 23.45% |
| `Cc1nc(CN2CCCC(CCc3ccccc3C(F)(F)F)C2)co1` (stereo not drawn) | -12.52% |
| `Cc1ncc2c(c1CNC(=O)C1(C)CCCO1)CCNC2` (stereo not drawn) | -4.502% |
| `CN(C)C(=O)c1cccc(C[S+]([O-])CC(=O)NC2CCCC2)c1` (stereo not drawn) | 27.05% |
| `COc1ccc(CNC(=O)c2nc3c(s2)CCN(C(C)=O)CC3)cc1` | 28.49% |
| `CC(C)N(C)C(=O)C1CCN(Cc2cnc3ccccn23)CC1` | 11.59% |
| `Cc1noc([C@@H]2C[C@H](NC(=O)C3CCCCC3)CN2C)n1` | -19.54% |
| `CCOc1cc(C)nc(N2CCN(C(=O)c3ccnn3C)CC2)n1` | 8.004% |
| `CN(C)S(=O)(=O)N1CCC(Oc2ccc(C#N)cn2)CC1` | 4.293% |
| `COc1ccc(C(=O)N(C)Cc2cccc(C#N)c2)c(OC)c1OC` | 3.663% |
| `CS(=O)(=O)NCc1nnc2n1CCN(Cc1ccncc1)C2` | -11.56% |
| `CCc1ccc(CN(C)C(=O)C(c2ccccc2F)N(C)C)nc1` (stereo not drawn) | 0.2159% |
| `CN(C)CCOCC1CN(C(=O)c2cccn2C)Cc2ccnn2C1.O=C(O)C(F)(F)F.O=C(O)C(F)(F)F` (stereo not drawn) | 2.73% |
| `c1ccc2sc(N3CCC4(CCCN4Cc4ncc[nH]4)CC3)nc2c1` | 60.65% |
| `O=C(NCc1ccco1)N1CCCCC1c1nc(C2CC2)no1` (stereo not drawn) | 20.47% |
| `Cc1cccc(NC(=O)C2CCCN2C(=O)c2ccco2)c1C` (stereo not drawn) | -10.47% |
| `COCc1cc(CNCc2c(C)n(CC(N)=O)c3ccccc23)n[nH]1` | 35.48% |
| `O=C(O)C(F)(F)F.[H][C@@]12CCN(Cc3ccc4c(c3)OCO4)C[C@]1(C(=O)NC1CC1)CCO2` | -0.03011% |
| `CC(C)[C@H]1COC(=O)N1CC(=O)N1CCCN(C(=O)c2ccoc2)CC1` | 14.01% |
| `O=C(O)C(F)(F)F.[H][C@@]12CNC(=O)[C@H](C)[C@]1([H])CN(CCc1ccccc1)C2` | 2.964% |
| `NCC1Cc2cc(-c3cnccn3)cc(Cl)c2O1` (stereo not drawn) | -20.86% |
| `c1cncc(Cc2nnc3n2CCN(CC2CCOC2)CC3)c1` (stereo not drawn) | 8.69% |
| `COCCCN1CC2(CCCN(c3ncnc4[nH]ccc34)C2)CCC1=O` (stereo not drawn) | 27.35% |
| `COc1cccc(NC(=O)CCCc2nc(C(C)C)no2)c1` | 20.46% |
| `O=C(N1CCCC1)N1CCC(Nc2ccncn2)CC1` | 17.25% |
| `CSc1ccc(CN(CCO)Cc2nccn2C)cc1` | 10.01% |
| `CCS(=O)(=O)N1CCC2(CC1)CN(c1cccnc1)C(=O)CO2.O=C(O)C(F)(F)F` | -1.862% |
| `O=C(O)C(F)(F)F.[H][C@@]12C[C@H](C(=O)NC)[C@@]([H])(CN(Cc3ccc(OC)cc3)C1)O2` | 4.37% |
| `COc1cccc(OCCNS(C)(=O)=O)c1` | -20.84% |
| `CN1CC2(CCCN(Cc3cccc(Oc4ccccc4)c3)C2)OC1=O` (stereo not drawn) | 2.197% |
| `Cc1ccc(CN2CCc3c(CN(C)C)n[nH]c3C2)s1.O=C(O)C(F)(F)F.O=C(O)C(F)(F)F` | 26.26% |
| `[H][C@]12CN(C(=O)c3ccnn3C)C[C@@]1([H])OCCN(S(C)(=O)=O)C2` | 1.736% |

6 of the entries, repeated:

CN1Cc2ccccc2CC2(CCN(c3ncc(F)cn3)CC2)C1=O gave 31.75%.
O=C(C1CCCO1)N1CCCn2c(nnc2Cn2ccnc2)C1.O=C(O)C(F)(F)F (stereo not drawn) gave 24.96%.
COc1ccc(C(=O)N(C)Cc2cccc(C#N)c2)c(OC)c1OC gave 3.663%.
O=C(NCc1ccco1)N1CCCCC1c1nc(C2CC2)no1 (stereo not drawn) gave 20.47%.
CCc1ccc(CN(C)C(=O)C(c2ccccc2F)N(C)C)nc1 (stereo not drawn) gave 0.2159%.
CCCN1CCN(C(=O)CCn2cccc2)CC1 gave 22.02%.

Measurements from “University of Dundee, Small-Polar-MMV Screening Library” (2021), ChEMBL document CHEMBL3988442.